Source: patent US6087121A, “Chemiluminescent detection of heme proteins in biological samples” (Mayo Foundation for Medical Education and Research, priority 1999, dated 2000)

Tested on: Hb
Experiment: Performance characteristics of Hb assay (precision, linearity, recovery, stability)
Parameters: species or system human
Protocol: Ultrafiltered urine was prepared from a pool of fresh urine specimens by ultrafiltration through Centriprep-10 at 3,000×g in a Beckman J2-HC centrifuge (Beckman Instruments, Calif.). This treatment separates all biomolecules with molecular weight greater than 10,000 daltons so that the ultrafiltered urine is devoid of Hemoglobin (Hb) and Myoglobin (Mb). Stock standards were prepared with the ultrafiltrate containing known quantities of, either purified Hb or washed, packed RBCS. A cell count of the stock RBC standard was determined by the Yellow IRIS® Automated Imaging System (Independent Research Imaging Systems, Chatsworth, Calif.). Cells in urine are imaged under laminar flow conditions. Up to 80 images of cells are captured using a high speed charged-coupled device camera. Cell images are then identified and quantified. Serial dilutions of the stock standards were made with the ultrafiltrate. All chemiluminescence measurements were determined using a Berthold AutoLumat, LB 953 (EG&G Berthold, Aliquippa, Pa.).
Fresh urine specimens were obtained in routine commercial collection vessels. The specimens were, either, analyzed immediately or stored at 4° C. until analysis. The urine samples were prepared for analysis by adding CTAC to produce a 0.1% solution, unless otherwise noted, in order to lyse the erythrocytes, thereby releasing hemoglobin. The assays were performed in a 75×12 mm polystyrene tube. The assay solutions were prepared by adding to each tube 294 μL of high ionic strength buffer, 5.0 μL of the prepared urine samples or standards, and […] of substrate (0.4 mM solution of 7-DNH), unless otherwise noted. The emission of light was measured over five seconds following automatic injection of 300 μL of 5% hydrogen peroxide (pH 3.25). The standard curve was obtained by plotting chemiluminescence emission in Relative Light Units (RLU) versus Hb concentration (μg/mL) or number of RBCs (#RBC/high power field (hpf)). Cell counts were determined with the Yellow Iris® instrument and confirmed by a manual hemocytometer count.
Intra-assay imprecisions were calculated by performing the assays on the same day and determining the mean and standard deviation of ten replicates. Inter-assay imprecisions were calculated by performing the assays on the Hb standard samples made fresh on different days. The mean and standard deviation of six analyses of each standard were performed once daily. Intra- and inter-assay imprecision were calculated from analysis of three standards at three concentration levels which spanned the range of concentrations at which the assay was accurate. Within run imprecisions, expressed as % coefficient of variation (CV), were a 4.9, 6.2, and 0.5% for low, medium and high Hb levels, respectively (Table 3). Intra-assay imprecisions for the RBC standard were slightly higher; 9.9, 7.4, 5.7% for low, medium and high numbers of RBCs in the urine (Table 4). Intra-assay imprecisions for Hb concentration were 6.86, 7.23 and 6.06 for low, medium and high concentration of Hb, respectively.
The standard curve for the assay is linear down to 60 ng/mL and up to 250 μg/mL Hb. […]
The effect of measurement time on the reproducibility of the assay was determined by measuring six duplicate samples treated with detergent and substrate at aspecific time intervals. The first sample was assayed at zero time with the remaining samples measured at 5 minutes intervals up to 25 minutes. […]

## Hemoglobin: human hemoglobin purchased from Sigma
300 ng/mL
  Recovery of Hb spiked into ultrafiltered urine: 96.5%
62500 ng/mL
  Recovery of Hb spiked into ultrafiltered urine: 101.3%
97670 ng/mL
  Recovery of Hb spiked into ultrafiltered urine: 97.7%
Standard curve
  lower limit of linear/working range for Hb: 60 ng/mL
  upper limit of linear/working range for Hb: 250 µg/mL
